Literature values in patent US20250288561A1, “NEZULCITINIB FOR DELIVERY BY NEBULIZED ORAL INHALATION” (THERAVANCE BIOPHARMA R&D IP, LLC, priority 2022, published 2025).
For at least one compound, name, drawing or mass did not settle the structure.

System: steroid-refractory acute or chronic GVHD
Settings: 95 patients with steroid-refractory acute or chronic GVHD, including lung GVHD; cited from earlier work

In the case of `N#CC[C@H](C1CCCC1)n1cc(-c2ncnc3[nH]ccc23)cn1` [ruxolitinib], the “response to salvage therapy” value is given as “complete or partial response to ruxolitinib in the majority of patients”.
